Reference: PubChem BioAssay AID1259282 (Sanger Institute, 2017)
Test: 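Kinase knock-downs that work with targeted colorectal cancer drugs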 (primary screen). Cells: DIFI human colorectal cancer cell line. Reagent: siRNA pool against human genes. Conditions: anchor drug at a mild dose (BYL719 1 µM, cetuximab 5 µg/ml, trametinib 10 nM) or DMSO vehicle; exposure time not given. Measurement: 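Robust z-score and replicate-mean viability versus non-targeting pool without drug, plus a synergy score for each low-dose anchor drug (BYL719, cetuximab, trametinib)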. Scale: robust z-score, knock-down alone: higher = more viable cells than typical knock-down; viability, knock-down alone: higher = more viable cells. Units: viability, knock-down alone in fraction of control. Hit rule: 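Essential when the robust z-score of the knock-down without drug falls below -3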. Calls: active = essential (knock-down alone, z below -3); inactive = not essential.
The whole screen tested 794 reagents; this is an unselected part. In the full data, 11 (1.4%) are marked active. 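Calls flag knock-downs that lower viability without drug; drug synergy appears only in the synergy scores; exposure time not stated.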 Viability is capped at 1. Further read-outs or replicates are left out here. The record does not give: the amount of reagent, the time to read-out.

What did the screen give for WT1 (WT1 transcription factor)?
robust z-score, knock-down alone: 0.715; viability, knock-down alone: 1; outcome: inactive

For PAK6 (p21 (RAC1) activated kinase 6), what does the deposit list?
robust z-score, knock-down alone: -0.972; viability, knock-down alone: 0.755; outcome: inactive

With EPHB6 (EPH receptor B6), what was measured?
robust z-score, knock-down alone: -0.0425; viability, knock-down alone: 0.89; outcome: inactive

For FGFRL1 (fibroblast growth factor receptor like 1), how do the results read?
robust z-score, knock-down alone: 0.636; viability, knock-down alone: 0.989; outcome: inactive

Which result is listed for GNE?
robust z-score, knock-down alone: 0.304; viability, knock-down alone: 0.94; outcome: inactive

Which result is listed for PIK3R4 (phosphoinositide-3-kinase regulatory subunit 4)?
robust z-score, knock-down alone: 0.715; viability, knock-down alone: 1; outcome: inactive

2 entries from above, reduced to “viability, knock-down alone”:
EPHB6 (EPH receptor B6): 0.89
FGFRL1 (fibroblast growth factor receptor like 1): 0.989

More entries follow:
How did the screen score BMX (BMX non-receptor tyrosine kinase)?
robust z-score, knock-down alone: 0.715; viability, knock-down alone: 1; outcome: inactive

What did the screen give for PIM2 (Pim-2 proto-oncogene, serine/threonine kinase)?
robust z-score, knock-down alone: -0.983; viability, knock-down alone: 0.753; outcome: inactive

For CAMK1G (calcium/calmodulin dependent protein kinase IG), how do the results read?
robust z-score, knock-down alone: 0.138; viability, knock-down alone: 0.916; outcome: inactive

With CDK13 (cyclin dependent kinase 13), what does the deposit list?
robust z-score, knock-down alone: 0.623; viability, knock-down alone: 0.987; outcome: inactive

For PRKCH (protein kinase C eta), what was measured?
robust z-score, knock-down alone: -1.31; viability, knock-down alone: 0.706; outcome: inactive

What is on record for FN3K (fructosamine 3 kinase)?
robust z-score, knock-down alone: 0.535; viability, knock-down alone: 0.974; outcome: inactive
